# Measured values reported in publication PMC13156305.
# Sequences of proteins named here, by UniProt entry; tags and fusion partners are left off.
# UniProt O94822: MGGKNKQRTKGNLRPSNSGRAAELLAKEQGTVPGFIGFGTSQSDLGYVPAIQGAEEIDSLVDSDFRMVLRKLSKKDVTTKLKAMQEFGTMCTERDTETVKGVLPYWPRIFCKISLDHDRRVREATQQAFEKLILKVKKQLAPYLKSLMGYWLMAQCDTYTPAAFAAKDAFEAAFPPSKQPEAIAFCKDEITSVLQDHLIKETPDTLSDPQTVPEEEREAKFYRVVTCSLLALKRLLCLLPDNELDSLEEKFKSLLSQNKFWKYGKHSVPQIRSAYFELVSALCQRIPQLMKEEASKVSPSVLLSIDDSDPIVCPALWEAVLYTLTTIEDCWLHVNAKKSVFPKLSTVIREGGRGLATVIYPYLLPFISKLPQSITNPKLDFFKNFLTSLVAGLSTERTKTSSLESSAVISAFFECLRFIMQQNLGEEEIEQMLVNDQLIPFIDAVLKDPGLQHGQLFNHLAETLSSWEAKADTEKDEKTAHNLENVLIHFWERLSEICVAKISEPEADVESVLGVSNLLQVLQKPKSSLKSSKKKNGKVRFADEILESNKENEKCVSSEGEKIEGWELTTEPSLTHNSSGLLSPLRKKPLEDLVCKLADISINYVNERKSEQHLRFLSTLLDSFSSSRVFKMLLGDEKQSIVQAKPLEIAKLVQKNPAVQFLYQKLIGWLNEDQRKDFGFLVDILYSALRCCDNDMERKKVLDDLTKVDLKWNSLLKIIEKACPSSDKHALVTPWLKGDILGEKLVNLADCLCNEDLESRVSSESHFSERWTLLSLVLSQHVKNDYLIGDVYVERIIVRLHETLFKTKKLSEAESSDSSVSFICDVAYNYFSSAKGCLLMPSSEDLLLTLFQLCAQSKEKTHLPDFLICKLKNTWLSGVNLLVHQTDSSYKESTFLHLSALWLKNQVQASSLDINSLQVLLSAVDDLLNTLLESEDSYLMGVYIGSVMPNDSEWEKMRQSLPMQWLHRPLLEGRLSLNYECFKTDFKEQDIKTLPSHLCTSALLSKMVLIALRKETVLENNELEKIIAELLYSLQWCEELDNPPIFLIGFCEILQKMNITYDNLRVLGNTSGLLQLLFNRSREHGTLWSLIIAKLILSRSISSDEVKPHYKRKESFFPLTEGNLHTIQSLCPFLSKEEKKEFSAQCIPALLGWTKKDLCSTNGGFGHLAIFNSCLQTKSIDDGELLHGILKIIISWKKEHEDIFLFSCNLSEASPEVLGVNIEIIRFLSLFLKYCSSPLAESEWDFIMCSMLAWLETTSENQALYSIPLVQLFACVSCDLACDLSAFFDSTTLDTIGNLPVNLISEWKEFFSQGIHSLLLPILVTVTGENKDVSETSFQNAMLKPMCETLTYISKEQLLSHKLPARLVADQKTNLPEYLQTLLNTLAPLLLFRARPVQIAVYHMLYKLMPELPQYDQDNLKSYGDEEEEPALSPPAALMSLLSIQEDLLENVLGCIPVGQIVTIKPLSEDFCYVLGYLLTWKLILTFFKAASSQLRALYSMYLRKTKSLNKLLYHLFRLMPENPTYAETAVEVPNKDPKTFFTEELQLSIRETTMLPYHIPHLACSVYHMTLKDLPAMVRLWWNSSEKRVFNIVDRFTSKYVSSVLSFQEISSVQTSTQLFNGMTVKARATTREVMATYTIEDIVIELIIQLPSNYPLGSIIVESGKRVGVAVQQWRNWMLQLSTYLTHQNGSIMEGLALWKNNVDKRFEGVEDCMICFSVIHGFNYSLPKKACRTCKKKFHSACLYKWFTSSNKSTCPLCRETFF
# UniProt O95071: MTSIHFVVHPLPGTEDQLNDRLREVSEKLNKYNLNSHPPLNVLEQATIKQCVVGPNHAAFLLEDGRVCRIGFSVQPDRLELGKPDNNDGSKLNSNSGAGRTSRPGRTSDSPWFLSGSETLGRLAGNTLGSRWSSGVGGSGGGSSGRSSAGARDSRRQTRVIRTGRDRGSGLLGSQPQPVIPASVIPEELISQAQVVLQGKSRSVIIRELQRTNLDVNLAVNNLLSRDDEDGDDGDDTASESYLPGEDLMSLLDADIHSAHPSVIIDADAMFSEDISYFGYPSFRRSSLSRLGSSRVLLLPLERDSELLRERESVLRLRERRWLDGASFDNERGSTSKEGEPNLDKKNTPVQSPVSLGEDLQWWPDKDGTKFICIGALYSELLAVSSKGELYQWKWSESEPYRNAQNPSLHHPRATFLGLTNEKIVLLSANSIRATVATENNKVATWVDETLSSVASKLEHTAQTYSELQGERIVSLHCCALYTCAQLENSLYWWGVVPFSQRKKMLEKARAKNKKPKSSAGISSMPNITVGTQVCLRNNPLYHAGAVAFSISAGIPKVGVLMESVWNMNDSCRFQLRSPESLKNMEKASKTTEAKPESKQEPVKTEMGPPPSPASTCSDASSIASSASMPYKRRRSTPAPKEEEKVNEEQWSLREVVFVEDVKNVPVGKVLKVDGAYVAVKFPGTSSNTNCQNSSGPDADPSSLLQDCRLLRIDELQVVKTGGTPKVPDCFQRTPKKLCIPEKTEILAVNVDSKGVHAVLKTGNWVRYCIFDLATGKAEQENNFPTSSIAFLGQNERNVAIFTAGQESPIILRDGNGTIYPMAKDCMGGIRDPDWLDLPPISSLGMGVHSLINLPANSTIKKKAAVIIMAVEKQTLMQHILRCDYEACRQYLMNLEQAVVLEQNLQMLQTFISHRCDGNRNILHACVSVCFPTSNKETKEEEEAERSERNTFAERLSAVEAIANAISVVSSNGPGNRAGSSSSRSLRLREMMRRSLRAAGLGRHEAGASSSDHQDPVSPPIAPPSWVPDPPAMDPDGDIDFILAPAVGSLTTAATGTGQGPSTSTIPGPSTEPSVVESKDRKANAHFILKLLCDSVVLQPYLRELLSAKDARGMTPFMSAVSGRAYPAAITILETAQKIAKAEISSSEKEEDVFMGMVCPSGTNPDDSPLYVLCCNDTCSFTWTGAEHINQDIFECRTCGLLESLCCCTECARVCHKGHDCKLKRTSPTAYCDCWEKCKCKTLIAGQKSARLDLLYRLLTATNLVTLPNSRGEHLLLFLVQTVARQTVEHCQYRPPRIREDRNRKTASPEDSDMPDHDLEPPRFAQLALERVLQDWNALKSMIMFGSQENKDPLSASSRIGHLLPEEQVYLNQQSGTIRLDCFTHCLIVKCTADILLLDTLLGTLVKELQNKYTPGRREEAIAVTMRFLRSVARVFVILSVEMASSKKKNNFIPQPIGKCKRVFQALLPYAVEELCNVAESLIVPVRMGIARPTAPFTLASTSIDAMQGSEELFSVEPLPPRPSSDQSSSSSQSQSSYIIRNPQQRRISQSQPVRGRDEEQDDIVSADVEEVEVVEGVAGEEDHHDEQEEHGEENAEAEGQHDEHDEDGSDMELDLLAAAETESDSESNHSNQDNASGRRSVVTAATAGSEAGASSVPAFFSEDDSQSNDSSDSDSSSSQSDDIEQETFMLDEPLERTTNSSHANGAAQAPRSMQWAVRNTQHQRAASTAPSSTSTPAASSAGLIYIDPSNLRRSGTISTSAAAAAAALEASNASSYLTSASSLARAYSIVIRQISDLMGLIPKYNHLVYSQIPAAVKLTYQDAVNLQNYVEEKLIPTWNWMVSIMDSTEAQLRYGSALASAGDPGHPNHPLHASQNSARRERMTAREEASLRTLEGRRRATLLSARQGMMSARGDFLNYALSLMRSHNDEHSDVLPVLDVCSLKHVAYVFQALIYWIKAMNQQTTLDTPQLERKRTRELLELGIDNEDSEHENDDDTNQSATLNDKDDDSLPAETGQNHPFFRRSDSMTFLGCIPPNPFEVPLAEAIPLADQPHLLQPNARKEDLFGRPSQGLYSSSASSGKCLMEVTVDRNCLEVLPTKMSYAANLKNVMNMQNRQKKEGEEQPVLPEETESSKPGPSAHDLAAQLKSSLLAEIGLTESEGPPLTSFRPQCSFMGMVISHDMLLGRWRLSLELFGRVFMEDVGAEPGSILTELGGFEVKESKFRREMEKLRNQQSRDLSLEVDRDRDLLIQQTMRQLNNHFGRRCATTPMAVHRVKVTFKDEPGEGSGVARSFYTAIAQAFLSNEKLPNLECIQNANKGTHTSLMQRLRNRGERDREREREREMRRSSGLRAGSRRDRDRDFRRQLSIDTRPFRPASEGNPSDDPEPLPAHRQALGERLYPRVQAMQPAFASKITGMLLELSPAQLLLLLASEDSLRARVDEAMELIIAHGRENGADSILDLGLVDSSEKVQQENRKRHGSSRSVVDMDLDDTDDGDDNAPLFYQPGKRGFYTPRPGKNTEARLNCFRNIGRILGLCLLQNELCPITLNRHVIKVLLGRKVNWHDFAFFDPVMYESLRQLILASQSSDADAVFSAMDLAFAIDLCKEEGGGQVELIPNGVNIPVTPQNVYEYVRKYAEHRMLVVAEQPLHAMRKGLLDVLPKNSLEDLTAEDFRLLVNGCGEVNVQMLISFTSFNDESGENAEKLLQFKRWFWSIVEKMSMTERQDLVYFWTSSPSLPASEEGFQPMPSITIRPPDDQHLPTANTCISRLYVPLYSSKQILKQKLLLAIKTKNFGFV
# UniProt Q9Y4R8: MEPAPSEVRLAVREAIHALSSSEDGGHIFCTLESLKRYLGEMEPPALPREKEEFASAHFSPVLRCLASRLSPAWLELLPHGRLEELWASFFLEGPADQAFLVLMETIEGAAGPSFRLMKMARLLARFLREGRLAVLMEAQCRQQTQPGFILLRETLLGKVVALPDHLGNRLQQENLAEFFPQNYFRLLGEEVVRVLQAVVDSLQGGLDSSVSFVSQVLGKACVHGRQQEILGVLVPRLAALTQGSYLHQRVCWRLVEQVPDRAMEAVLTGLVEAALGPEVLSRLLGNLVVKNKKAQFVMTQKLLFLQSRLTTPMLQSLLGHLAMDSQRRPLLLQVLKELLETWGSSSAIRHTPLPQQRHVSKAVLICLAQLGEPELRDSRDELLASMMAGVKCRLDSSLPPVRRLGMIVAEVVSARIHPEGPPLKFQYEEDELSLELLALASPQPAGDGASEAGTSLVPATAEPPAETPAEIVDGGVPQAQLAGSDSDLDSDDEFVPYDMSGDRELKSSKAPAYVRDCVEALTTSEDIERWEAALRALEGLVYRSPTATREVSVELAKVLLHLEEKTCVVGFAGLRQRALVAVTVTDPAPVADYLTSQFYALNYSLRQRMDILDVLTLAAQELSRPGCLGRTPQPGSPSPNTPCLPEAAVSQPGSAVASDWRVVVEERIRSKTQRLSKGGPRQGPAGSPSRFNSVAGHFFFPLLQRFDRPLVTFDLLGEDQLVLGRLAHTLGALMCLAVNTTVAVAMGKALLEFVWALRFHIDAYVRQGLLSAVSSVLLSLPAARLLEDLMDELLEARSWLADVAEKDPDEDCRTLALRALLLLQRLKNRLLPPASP
# UniProt O43156: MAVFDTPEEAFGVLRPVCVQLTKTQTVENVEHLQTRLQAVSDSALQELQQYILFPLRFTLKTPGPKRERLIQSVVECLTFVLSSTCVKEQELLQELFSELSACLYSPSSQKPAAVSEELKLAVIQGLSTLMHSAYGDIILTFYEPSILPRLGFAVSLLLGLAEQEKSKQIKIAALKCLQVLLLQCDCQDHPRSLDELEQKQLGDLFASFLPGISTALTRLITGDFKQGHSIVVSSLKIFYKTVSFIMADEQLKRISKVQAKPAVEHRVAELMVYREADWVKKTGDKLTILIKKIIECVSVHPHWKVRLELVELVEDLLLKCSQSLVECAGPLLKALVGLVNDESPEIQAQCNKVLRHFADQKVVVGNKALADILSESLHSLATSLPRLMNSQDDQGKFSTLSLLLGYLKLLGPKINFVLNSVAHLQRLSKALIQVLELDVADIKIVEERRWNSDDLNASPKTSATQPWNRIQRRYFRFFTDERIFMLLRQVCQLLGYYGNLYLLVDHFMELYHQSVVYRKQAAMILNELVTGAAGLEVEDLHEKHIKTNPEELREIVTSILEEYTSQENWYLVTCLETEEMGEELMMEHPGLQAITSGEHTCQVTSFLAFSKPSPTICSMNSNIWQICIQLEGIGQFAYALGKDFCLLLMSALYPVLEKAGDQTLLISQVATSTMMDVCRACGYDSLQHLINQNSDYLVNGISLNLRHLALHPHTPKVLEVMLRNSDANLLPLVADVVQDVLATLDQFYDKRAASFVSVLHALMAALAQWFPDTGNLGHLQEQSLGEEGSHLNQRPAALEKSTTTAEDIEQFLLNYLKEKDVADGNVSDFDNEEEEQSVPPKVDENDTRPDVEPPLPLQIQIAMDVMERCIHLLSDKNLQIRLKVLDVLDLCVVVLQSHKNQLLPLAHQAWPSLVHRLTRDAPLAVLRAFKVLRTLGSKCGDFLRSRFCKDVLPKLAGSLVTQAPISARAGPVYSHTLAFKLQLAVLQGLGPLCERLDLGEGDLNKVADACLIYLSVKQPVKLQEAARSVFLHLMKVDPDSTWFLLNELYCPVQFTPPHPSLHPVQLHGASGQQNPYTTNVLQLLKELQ
# These are yes or no findings as the source states them, for the method shown. Binding seen in cells or lysates may run through a third protein. A yes stands for co-enrichment or nearness to the bait. Other partners may have been found. Where a sequence is shown, tags or fusion partners need not be part of it.
# Target: T1, Src-Like Adaptor Protein (SLAP)-Flag, overexpressed in CRC cells (UniProt Q60898)
# T1 sequence: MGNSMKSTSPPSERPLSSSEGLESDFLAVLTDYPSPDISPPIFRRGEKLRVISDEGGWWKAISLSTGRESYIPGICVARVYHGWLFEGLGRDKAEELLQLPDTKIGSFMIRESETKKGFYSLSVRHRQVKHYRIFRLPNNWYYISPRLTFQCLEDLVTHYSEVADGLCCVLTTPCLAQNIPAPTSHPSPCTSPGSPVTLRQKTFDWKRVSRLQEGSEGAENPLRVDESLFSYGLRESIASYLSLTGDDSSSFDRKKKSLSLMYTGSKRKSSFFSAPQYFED
# Test: affinity purification with mass spectrometry; SILAC; SW620 cells overexpressing SLAP-Flag; CHAPS lysis buffer; heavy and light lysates (30 mg) mixed and immunoprecipitated with anti-Flag M2 agarose overnight at 4 °C
row,Substance,binding
1,"LTN1, endogenous in SW620 cells (from UniProt O94822 1-1766) (enzyme)",binds
2,"E3 ubiquitin ligase UBE3C, endogenous in CRC cells (from UniProt Q15386 1-1083) (enzyme)",binds
3,"UBR5, endogenous in SW620 cells (from UniProt O95071 1-2799) (enzyme)",binds
4,"TELO2, endogenous in SW620 cells (from UniProt Q9Y4R8 1-837)",binds

# Second part, the substance after the results:
row,binding,Substance
1,binds,"TRIM25, endogenous in SW620 cells (from UniProt Q14258 1-630) (enzyme)"
2,binds,"TTI1, endogenous in SW620 cells (from UniProt O43156 1-1089)"
